Experimental data from patent US12421282B2 (priority 2021, dated 2025).

Assay: general procedure: Fmoc solid-phase peptide synthesis; Rink resin; diimide, HATU, or HBTU
Details: whole synthesis, RP-HPLC

## PEPTIDE1{Y.[Aib].E.G.T.F.T.S.D.Y.S.I.[Aib].L.D.K.I.A.Q.Q.A.F.V.Q.W.L.I.A.G.G.P.S.S.G.A.P.P.P.S.[am]}|PEPTIDE2{[Phn19].[gGlu].[PEG2].[PEG2]}$PEPTIDE1,PEPTIDE2,16:R3-4:R2$$$V2.0
  final HPLC purity: 95.0%

HELM strings list residues between dots; [ac] is acetyl, [am] amide, other brackets name non-standard units.
